Assay results from patent US9180132B2, “Antimicrobial cationic steroids and methods of use” (The Trustees of the University of Pennsylvania, priority 2010, dated 2015).
For at least one compound, name, drawing or mass did not settle the structure.

Tested on: Bovine aortic endothelial cells (BAEC)
Test: Lipofection of BAEC with EGFP plasmid
Assay type: cell-based
Conditions: unconjugated, alone

C[C@@H]1C[C@H]2[C@@H]3CCC4=CC(=O)C=C[C@]4(C)[C@@]3(F)[C@@H](O)C[C@]2(C)[C@@]1(O)C(=O)CO [dexamethasone]
gene transfer activity (EGFP expression): no detectable gene transfer activity
